No constants are given. Whether binding was seen depends on the method and setting. Binding calls can cover weak binding; strength is not graded here.
Biological target: BAPKO_0422^20–201 (untagged) (Borrelia afzelii) (UniProt Q0SNA2)
Test: far-Western, overlay or dot blot; affinity ligand-binding immunoblot (ALBI): 10 μg BAPKO_0422^20–201 run on native-PAGE, blotted on PVDF, blocked in 5 % milk; incubated with human fH 73 μg/ml in TBS for 14 h at 4°C; bound fH detected by mouse monoclonal anti-human fH and a fluorescent secondary antibody; control blot incubated with TBS in place of fH; both purified

The chains behind the UniProt entries cited, without tags or fusion partners. Residues count along the entry.
UniProt P08603, residues 19-1231: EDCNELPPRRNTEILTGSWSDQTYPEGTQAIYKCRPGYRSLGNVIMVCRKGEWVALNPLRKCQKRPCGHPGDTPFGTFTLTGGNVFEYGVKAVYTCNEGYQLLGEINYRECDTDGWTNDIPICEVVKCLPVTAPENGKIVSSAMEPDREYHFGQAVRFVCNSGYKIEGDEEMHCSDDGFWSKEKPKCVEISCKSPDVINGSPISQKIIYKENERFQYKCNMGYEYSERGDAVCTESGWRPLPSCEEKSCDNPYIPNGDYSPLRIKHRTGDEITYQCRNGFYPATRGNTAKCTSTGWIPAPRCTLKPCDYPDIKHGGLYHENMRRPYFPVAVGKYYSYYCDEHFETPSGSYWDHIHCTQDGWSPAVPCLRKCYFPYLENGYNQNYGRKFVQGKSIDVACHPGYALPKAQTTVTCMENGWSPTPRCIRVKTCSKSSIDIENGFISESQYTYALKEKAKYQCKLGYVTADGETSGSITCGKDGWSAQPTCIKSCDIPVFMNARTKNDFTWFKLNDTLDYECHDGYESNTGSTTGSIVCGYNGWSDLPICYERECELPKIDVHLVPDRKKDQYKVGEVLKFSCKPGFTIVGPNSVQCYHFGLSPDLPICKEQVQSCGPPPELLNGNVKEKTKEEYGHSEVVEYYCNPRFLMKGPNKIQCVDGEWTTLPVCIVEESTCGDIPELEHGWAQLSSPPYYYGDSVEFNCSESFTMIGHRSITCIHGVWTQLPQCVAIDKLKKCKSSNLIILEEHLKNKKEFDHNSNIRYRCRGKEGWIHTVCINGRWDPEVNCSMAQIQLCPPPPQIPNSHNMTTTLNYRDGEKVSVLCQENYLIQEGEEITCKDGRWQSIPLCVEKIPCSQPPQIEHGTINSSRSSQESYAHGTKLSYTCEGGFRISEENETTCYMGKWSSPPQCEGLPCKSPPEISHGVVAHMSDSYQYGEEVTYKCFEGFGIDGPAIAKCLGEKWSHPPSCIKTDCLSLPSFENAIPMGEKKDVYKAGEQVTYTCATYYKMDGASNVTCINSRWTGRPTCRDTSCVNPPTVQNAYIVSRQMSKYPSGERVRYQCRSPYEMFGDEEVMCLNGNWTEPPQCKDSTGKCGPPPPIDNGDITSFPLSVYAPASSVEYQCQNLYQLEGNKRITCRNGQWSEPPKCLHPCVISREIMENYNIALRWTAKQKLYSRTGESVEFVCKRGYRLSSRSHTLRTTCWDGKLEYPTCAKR

human factor H (from UniProt P08603 19-1231)
binding: binds

From publication PMC4613713
